# Assay results as given in paper PMC11633468.
# By UniProt entry, the sequences of proteins in these tests, tags left out.
# UniProt O95714: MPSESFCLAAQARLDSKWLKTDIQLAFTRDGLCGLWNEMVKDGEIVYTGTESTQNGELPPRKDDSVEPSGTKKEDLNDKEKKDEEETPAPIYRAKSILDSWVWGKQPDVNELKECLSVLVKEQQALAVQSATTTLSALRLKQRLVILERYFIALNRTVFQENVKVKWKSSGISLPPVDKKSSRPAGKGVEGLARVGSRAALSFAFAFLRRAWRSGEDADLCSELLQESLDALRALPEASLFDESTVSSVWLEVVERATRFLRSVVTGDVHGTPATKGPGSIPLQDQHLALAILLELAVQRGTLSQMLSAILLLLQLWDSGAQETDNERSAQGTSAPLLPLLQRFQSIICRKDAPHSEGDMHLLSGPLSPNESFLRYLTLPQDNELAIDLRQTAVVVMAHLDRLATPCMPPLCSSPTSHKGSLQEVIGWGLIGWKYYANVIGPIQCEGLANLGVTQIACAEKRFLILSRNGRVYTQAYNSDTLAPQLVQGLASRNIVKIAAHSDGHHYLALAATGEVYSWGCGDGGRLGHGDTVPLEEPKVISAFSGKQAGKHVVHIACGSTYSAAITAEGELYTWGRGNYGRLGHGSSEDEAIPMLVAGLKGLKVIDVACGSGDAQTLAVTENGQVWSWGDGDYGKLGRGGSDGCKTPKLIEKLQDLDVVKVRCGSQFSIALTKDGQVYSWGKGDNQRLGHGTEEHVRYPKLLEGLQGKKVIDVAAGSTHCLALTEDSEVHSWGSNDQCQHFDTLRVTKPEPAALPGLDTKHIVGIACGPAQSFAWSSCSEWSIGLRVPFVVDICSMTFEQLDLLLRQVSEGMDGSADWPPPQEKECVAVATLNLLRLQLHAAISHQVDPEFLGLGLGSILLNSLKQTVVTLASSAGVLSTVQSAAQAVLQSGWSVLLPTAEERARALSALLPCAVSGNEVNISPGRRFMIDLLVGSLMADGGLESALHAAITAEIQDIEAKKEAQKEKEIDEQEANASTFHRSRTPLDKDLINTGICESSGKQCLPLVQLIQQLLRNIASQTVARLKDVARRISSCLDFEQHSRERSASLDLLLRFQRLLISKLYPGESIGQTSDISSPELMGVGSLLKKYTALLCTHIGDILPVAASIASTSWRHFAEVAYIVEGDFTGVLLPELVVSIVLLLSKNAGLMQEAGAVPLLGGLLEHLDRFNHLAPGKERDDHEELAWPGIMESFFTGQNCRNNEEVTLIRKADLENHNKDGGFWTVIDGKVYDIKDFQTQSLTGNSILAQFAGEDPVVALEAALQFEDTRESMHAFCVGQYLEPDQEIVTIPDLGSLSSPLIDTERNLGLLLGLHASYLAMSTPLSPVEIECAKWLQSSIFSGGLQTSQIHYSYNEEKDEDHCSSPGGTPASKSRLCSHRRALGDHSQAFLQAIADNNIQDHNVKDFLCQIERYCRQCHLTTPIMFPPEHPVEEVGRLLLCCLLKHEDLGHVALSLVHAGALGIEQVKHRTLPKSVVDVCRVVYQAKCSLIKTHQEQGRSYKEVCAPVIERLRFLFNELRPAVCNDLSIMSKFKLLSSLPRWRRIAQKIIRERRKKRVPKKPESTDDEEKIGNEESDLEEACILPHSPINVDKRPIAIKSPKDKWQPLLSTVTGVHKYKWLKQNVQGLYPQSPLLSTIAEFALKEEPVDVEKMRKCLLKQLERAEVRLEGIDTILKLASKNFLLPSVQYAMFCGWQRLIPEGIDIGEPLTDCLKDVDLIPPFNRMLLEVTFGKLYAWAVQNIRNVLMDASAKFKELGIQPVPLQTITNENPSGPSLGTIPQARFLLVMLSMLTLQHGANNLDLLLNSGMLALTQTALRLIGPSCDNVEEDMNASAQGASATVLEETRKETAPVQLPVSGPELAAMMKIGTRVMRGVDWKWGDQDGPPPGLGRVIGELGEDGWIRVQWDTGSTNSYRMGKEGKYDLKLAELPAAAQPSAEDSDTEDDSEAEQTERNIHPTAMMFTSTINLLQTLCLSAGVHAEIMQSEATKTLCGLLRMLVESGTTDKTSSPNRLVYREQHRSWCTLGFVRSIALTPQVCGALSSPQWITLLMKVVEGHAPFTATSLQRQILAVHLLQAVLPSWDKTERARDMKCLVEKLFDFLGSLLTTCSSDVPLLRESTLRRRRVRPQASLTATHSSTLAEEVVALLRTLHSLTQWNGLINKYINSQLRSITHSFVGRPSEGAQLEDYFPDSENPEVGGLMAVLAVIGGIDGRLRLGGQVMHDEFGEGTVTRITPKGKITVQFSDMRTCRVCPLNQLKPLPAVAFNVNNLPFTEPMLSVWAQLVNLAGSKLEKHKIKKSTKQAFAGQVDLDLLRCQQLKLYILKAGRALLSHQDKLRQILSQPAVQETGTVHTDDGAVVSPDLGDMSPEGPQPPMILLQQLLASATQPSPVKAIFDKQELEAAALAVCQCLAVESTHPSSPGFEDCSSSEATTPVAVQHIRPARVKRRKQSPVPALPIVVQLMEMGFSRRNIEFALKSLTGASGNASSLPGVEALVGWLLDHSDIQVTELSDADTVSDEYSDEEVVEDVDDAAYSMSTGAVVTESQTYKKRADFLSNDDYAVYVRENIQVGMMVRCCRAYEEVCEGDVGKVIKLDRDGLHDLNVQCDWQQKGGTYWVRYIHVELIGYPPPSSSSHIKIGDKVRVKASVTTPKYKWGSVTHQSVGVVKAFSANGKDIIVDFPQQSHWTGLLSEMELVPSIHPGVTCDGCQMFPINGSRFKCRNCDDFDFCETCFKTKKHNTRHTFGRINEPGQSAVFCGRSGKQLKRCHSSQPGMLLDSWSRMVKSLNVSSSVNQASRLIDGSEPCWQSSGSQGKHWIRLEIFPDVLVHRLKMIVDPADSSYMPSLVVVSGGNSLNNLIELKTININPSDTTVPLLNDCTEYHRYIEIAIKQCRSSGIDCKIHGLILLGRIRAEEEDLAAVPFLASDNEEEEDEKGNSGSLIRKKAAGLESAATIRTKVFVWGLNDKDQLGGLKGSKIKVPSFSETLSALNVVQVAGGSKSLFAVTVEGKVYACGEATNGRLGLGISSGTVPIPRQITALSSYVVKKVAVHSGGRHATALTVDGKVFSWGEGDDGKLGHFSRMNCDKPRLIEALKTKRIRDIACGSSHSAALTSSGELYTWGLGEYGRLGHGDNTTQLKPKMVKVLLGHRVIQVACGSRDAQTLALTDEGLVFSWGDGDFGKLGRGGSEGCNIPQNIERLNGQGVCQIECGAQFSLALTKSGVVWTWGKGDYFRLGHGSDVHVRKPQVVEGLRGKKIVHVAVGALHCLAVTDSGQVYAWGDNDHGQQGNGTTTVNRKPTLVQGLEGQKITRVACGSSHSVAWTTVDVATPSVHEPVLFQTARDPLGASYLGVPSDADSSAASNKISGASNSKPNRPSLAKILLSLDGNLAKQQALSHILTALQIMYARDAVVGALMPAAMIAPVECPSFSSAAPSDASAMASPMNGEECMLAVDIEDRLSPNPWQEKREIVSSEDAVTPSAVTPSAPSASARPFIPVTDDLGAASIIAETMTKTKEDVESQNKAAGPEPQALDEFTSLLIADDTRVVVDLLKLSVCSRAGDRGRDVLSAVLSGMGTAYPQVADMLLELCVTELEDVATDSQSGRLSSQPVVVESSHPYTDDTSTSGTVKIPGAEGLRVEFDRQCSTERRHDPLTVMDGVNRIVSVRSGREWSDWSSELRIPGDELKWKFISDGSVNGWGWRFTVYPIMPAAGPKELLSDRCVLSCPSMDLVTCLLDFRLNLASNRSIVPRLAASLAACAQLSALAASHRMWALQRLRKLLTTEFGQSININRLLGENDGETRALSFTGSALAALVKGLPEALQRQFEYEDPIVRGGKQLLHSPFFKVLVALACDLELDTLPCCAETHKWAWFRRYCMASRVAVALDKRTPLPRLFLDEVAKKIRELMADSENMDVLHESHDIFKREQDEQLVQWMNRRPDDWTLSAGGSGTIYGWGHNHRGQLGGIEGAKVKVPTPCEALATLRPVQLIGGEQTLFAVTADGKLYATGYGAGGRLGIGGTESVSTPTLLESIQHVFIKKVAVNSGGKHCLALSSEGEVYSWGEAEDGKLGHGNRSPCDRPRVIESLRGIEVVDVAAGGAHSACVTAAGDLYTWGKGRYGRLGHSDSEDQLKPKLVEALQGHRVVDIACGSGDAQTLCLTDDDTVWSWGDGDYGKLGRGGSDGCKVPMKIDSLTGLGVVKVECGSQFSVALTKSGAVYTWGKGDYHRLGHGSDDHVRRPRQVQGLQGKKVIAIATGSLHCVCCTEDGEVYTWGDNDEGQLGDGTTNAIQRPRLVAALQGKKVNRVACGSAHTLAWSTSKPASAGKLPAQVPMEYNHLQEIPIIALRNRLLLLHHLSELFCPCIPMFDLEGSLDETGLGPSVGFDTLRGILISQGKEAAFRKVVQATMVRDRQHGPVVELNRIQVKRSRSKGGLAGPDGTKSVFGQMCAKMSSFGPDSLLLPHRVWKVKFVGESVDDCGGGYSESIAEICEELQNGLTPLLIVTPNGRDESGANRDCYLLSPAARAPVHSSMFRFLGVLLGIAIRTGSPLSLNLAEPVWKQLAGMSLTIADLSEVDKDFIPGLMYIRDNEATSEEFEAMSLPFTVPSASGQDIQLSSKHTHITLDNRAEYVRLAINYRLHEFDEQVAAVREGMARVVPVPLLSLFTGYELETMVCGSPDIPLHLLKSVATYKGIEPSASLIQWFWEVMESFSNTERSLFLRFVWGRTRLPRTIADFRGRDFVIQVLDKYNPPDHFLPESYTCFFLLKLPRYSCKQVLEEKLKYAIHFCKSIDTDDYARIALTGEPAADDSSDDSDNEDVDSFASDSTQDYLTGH
# UniProt P35222: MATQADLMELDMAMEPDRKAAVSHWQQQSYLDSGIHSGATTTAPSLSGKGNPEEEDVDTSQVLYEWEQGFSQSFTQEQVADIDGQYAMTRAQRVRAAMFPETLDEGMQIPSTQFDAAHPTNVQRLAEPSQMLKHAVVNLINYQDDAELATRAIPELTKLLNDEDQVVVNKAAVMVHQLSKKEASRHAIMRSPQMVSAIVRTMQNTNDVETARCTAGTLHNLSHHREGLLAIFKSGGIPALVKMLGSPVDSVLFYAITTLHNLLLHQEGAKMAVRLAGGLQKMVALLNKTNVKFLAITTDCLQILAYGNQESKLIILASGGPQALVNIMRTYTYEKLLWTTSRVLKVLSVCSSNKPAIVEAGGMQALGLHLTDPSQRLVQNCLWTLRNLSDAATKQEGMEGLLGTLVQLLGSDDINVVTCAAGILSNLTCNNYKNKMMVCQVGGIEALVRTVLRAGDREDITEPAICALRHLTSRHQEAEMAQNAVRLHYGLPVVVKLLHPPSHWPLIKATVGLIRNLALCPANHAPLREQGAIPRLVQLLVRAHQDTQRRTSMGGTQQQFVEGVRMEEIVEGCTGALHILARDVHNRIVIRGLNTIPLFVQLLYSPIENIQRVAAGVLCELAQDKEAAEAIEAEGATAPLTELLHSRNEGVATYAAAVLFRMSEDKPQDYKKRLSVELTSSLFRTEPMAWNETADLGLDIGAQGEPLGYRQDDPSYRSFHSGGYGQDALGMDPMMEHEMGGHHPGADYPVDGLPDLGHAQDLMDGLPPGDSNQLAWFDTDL
# Results are given in words; binding and its absence hold for the method and conditions named. In cells and extracts the contact can be indirect. Some binding calls cover weakened binding; strength is not graded here.
# Assays:
# [1] = molecular target: HECT and RLD domain-containing E3 ubiquitin protein ligase 2 (HERC2) (human (endogenous in HepaRG)) (UniProt O95714); test: co-IP; endogenous proteins in HepaRG whole-cell lysates; 1 µg antibody at 4 °C overnight, protein A/G agarose 2 hours at 4 °C, SDS-PAGE and blot; cells treated with 20 mM APAP for 6 hours; for β-catenin and GSK3β HERC2-deficient (Cas9 HERC2) cells
# HERC2-HA = HERC2-HA (UniProt O95714); test: co-IP; HEK293T cells co-transfected with HERC2-HA and β-catenin-FLAG plasmids; immunoprecipitation with anti-HA magnetic beads, blot with anti-FLAG antibody
binding [1],binding (HERC2-HA),Substance
binds,,β-catenin (CTNNB1) (from UniProt P35222 1-781)
,binds,β-catenin-FLAG (from UniProt P35222 1-781)
